The supplement of paper PMC11006884
This is a selection; strong and weak results do not stand in their true shares.

Sequences of proteins named here, by UniProt entry; tags and fusion partners are left off. A change or cut given only in a name is not applied to a line headed by its entry.
UniProt P10155: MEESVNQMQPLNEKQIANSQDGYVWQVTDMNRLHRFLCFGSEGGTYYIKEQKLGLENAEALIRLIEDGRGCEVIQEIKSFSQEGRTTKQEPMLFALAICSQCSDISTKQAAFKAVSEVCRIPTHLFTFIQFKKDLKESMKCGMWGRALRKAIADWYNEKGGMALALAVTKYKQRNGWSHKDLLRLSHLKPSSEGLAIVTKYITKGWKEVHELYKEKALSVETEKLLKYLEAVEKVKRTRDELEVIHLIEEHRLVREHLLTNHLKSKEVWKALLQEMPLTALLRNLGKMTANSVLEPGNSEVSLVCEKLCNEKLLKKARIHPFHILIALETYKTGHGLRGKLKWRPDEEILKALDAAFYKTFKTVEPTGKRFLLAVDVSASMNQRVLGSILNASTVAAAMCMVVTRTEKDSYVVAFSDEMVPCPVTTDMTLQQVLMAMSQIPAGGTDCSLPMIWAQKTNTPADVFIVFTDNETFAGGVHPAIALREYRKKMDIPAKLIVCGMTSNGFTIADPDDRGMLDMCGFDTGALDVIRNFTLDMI
UniProt P09211: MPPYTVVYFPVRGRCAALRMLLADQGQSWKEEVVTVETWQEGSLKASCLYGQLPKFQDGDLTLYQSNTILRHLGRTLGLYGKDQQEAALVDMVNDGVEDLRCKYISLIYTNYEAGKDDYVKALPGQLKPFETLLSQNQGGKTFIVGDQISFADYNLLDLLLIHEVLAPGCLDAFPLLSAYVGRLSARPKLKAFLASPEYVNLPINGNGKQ
UniProt P11717, whole entry, looked up: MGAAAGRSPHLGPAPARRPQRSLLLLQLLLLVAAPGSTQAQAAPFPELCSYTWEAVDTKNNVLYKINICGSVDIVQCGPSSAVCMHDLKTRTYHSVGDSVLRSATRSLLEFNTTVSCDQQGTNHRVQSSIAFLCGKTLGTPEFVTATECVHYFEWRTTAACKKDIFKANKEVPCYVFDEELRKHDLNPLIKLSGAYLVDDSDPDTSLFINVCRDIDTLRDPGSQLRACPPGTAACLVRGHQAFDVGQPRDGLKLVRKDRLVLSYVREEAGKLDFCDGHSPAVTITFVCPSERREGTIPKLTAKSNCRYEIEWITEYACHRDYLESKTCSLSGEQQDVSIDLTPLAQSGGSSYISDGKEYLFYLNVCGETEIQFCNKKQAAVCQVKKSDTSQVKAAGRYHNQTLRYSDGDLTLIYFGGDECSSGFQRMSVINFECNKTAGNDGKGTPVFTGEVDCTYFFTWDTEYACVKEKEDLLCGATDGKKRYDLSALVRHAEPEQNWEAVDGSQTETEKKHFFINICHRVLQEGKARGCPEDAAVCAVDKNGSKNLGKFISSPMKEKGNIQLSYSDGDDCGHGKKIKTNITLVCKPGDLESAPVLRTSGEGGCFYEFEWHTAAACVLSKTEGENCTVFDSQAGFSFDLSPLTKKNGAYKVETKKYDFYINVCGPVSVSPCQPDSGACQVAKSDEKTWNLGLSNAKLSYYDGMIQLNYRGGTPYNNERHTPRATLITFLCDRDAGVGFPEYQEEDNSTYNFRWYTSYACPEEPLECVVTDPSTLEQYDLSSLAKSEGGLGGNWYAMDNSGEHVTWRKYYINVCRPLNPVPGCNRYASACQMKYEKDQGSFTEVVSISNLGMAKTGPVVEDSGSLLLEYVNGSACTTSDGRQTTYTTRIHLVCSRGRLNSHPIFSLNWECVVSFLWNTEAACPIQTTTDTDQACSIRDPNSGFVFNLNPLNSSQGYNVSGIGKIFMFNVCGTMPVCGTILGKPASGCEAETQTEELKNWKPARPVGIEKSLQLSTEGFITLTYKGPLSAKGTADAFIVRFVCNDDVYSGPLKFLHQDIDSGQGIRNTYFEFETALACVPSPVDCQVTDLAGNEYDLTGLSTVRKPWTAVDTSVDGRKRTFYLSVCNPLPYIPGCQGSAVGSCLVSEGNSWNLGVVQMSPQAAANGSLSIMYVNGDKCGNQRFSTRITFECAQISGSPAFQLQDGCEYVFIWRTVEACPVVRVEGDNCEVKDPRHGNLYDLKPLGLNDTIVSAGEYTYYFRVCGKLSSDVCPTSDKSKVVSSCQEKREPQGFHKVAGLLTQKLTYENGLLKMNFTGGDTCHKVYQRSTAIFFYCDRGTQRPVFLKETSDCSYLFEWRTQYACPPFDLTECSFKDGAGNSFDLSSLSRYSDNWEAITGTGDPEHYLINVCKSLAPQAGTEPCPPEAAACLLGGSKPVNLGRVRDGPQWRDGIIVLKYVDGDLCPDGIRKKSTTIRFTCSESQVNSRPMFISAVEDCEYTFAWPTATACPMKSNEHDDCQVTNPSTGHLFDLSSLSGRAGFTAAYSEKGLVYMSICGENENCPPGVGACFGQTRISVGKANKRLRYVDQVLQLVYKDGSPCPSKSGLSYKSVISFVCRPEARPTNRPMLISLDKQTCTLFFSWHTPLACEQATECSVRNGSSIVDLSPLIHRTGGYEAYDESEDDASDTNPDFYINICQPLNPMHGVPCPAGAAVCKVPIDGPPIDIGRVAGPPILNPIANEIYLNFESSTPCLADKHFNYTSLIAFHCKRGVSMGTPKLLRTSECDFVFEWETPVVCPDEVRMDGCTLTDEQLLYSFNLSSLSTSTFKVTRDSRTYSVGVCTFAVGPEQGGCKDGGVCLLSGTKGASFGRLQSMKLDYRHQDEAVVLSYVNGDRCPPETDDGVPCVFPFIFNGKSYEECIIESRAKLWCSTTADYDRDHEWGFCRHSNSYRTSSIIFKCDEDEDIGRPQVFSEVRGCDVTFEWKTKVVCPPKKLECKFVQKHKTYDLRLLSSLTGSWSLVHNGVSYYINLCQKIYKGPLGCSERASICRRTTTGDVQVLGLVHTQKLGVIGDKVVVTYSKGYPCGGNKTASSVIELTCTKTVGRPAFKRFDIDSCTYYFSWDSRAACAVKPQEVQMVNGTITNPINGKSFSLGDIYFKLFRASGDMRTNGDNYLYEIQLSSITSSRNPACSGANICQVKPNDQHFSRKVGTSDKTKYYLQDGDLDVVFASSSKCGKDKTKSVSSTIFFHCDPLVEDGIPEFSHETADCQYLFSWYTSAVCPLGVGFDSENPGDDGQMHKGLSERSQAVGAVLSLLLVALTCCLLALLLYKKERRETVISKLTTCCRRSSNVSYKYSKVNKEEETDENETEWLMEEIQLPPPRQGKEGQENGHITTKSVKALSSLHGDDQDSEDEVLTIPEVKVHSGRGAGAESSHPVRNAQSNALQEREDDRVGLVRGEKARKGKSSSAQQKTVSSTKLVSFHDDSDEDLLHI
UniProt P11387: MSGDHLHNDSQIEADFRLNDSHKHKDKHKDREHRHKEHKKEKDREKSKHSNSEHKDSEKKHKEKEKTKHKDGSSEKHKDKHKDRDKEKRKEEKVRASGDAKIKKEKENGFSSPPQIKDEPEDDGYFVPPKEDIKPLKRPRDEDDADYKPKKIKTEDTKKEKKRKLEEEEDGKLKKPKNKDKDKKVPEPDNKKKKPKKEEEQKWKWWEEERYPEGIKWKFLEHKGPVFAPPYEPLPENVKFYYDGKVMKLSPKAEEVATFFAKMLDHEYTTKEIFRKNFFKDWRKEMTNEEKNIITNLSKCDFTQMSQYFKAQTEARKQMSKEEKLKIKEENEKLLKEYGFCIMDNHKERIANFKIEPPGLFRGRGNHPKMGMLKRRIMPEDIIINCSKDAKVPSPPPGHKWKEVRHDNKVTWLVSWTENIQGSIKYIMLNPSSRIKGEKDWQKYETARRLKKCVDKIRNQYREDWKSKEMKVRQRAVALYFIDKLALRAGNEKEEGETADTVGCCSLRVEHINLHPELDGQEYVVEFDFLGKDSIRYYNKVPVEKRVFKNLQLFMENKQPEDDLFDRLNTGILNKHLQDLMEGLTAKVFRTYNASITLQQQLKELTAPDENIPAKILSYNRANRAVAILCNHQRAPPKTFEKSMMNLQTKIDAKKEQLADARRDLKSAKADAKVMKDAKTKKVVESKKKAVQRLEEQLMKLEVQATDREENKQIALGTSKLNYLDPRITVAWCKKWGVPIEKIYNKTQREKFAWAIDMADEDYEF
UniProt P13807: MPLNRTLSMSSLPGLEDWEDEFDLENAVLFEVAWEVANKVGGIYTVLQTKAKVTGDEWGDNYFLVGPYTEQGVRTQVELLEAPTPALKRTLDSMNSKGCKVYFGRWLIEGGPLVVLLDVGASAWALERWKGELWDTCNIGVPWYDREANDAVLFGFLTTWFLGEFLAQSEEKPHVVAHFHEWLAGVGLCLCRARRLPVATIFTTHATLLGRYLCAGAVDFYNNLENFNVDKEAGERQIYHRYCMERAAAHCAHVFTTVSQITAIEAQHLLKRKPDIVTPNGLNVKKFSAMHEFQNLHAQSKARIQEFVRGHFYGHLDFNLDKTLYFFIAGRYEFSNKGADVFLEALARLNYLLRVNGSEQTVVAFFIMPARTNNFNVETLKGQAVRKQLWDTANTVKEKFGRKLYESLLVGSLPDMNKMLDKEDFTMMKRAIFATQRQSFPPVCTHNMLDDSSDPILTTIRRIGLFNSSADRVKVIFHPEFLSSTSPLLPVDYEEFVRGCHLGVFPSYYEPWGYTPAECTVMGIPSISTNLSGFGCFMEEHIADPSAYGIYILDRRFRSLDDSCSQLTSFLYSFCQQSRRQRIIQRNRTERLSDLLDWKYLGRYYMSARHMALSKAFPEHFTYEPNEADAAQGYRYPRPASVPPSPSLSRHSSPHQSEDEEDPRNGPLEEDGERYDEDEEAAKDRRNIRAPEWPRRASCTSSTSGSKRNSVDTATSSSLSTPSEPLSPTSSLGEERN
UniProt P10809, whole entry, looked up: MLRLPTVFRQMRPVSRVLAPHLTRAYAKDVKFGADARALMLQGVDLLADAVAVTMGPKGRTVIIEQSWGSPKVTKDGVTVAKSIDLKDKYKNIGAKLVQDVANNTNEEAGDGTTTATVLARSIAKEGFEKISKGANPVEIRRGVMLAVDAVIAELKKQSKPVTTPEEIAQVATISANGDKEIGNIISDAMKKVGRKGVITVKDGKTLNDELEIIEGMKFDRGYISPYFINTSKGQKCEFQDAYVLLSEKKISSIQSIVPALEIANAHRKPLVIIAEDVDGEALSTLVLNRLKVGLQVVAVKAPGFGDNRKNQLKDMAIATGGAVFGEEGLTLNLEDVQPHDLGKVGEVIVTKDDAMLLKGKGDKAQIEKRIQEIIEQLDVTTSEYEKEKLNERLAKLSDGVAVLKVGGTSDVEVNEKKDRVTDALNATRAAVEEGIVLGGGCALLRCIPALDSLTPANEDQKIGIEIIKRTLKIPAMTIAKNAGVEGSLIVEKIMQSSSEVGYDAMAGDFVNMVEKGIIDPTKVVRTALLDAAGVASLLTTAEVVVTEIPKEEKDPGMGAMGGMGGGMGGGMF
UniProt P07919: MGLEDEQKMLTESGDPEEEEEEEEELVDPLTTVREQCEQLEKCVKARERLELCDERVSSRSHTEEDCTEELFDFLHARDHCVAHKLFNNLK
UniProt P12236: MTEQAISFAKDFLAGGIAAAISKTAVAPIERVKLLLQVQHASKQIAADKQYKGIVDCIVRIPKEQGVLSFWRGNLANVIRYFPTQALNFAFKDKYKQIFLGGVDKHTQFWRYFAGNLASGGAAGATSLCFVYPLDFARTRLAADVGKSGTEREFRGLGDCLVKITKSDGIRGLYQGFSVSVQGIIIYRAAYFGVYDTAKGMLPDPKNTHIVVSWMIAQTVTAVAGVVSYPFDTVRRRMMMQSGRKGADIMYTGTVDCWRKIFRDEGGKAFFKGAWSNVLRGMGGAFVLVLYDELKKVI
UniProt P11171, whole entry: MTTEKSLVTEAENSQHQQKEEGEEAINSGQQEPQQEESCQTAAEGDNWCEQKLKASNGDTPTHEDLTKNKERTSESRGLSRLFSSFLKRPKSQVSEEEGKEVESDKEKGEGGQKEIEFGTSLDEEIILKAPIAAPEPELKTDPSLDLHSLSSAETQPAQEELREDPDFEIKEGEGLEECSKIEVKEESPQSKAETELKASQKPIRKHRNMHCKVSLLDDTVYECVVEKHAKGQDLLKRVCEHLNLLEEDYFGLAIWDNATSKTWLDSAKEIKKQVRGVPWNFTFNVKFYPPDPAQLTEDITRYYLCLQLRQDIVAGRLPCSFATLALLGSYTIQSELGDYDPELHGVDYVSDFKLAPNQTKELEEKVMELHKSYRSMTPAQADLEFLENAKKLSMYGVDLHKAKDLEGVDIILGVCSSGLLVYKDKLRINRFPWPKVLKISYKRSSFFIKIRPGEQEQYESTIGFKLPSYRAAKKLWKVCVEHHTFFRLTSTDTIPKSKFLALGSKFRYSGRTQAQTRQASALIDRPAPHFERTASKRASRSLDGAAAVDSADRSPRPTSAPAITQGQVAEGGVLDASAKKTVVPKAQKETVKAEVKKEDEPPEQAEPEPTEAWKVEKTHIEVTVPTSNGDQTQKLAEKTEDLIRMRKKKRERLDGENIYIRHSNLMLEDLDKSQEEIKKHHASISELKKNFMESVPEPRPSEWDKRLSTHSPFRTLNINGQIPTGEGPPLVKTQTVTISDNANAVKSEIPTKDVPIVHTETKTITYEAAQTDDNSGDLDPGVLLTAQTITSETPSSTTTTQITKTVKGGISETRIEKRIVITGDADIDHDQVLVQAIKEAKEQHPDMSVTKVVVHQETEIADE

compound: COC(=O)C#Cc1ccccc1 [methyl 3-phenylpropiolate]; test: log2 ratio of iodoacetamide-alkyne labeling of the cysteine site, DMSO over compound (competition); higher = stronger covalent engagement of the cysteine by the compound, active = 1 or more; conditions: 500 µM; treatment time 1 h; system: HEK293T cell lysate
Outline: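 After 1 h at ambient temperature with vehicle or electrophile (500 µM), HEK293T lysate (2 mg/mL) was labelled for 1 h with iodoacetamide alkyne and clicked to sCIP-TMT reagents. Pooled samples were trypsin-digested overnight at 37 °C, streptavidin-enriched, acid-eluted and analysed by Orbitrap Eclipse LC-MS/MS with FAIMS, then quantified in FragPipe over three replicates with duplicate channels. A cysteine's log2 competition ratio is its mean control-channel over mean compound-channel reporter intensity. Cysteines quantified in only one replicate were not included.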

Target	log2 ratio of iodoacetamide-alkyne labeling
HNRNPL C581 (UniProt P14866)	inactive: -0.0402
UniProt P10155_C38	inactive: 0.677
GOT1 C46 (UniProt P17174)	inactive: -0.141
GSTP1 C102 (UniProt P09211)	inactive: -0.0685
ACAA1 C218 (UniProt P09110)	inactive: 0.311
EEF2 C388 (UniProt P13639)	inactive: 0.185
HNRNPA1 C175 (UniProt P09651)	inactive: -0.128
ACTN1 C370 (UniProt P12814)	inactive: 0.00377
CTSB C319 (UniProt P07858)	inactive: 0.512
ACADM C156 (UniProt P11310)	inactive: 0.666
LTA4H C200 (UniProt P09960)	inactive: -0.0639
PARP1 C845 (UniProt P09874)	inactive: 0.134
IGF2R C1408 (UniProt P11717)	inactive: 0.444
FH C333 (UniProt P07954)	inactive: 0.338
UniProt P14618_C474	inactive: 0.222
UniProt P0CG30_C105	inactive: -0.204
LAMC1 C1600 (UniProt P11047)	inactive: 0.279
HSP90B1 C645 (UniProt P14625)	inactive: -0.0466
G6PD C158 (UniProt P11413)	inactive: -0.00254

For convenience, some entries already given:
Target	log2 ratio of iodoacetamide-alkyne labeling
GSTP1 C102 (UniProt P09211)	inactive: -0.0685
ACAA1 C218 (UniProt P09110)	inactive: 0.311

Continuation:

Target	log2 ratio of iodoacetamide-alkyne labeling
TOP1 C300 (UniProt P11387)	inactive: -0.0183
IMPDH2 C468 (UniProt P12268)	inactive: 0.0778
GSTP1 C48 (UniProt P09211)	inactive: -0.15
ETFA C109 (UniProt P13804)	inactive: 0.224
DSP C899 (UniProt P15924)	inactive: -0.0233
EEF2 C67 (UniProt P13639)	inactive: -0.0192
UniProt P0DN79_C244	inactive: -0.0339
UniProt P17812_C216	inactive: -0.127
DSP C1052 (UniProt P15924)	inactive: 0.439
GYS1 C564 (UniProt P13807)	inactive: 0.416
HSPD1 C442 (UniProt P10809)	active: 1.2
UQCRH C37 (UniProt P07919)	inactive: 0.897
HSP90AA1 C481 (UniProt P07900)	inactive: 0.0571
HNRNPL C151 (UniProt P14866)	inactive: 0.0208
SLC25A6 C257 (UniProt P12236)	inactive: 0.26
RPSA C163 (UniProt P08865)	inactive: -0.132
EPB41 C224 (UniProt P11171)	inactive: 0.181
PYGB C326 (UniProt P11216)	inactive: 0.332
LAMC1 C351 (UniProt P11047)	inactive: 0.736
